Earlier results, collected in patent US5872104A, “Combinations and methods for reducing antimicrobial resistance” (Oridigm Corporation, priority 1994, dated 1999).
At least one read-out could not be matched to a standard name with certainty.

test system: HT-29 cells; details: human, read-out: cytotoxicity of HT-29 cells above; cited from earlier work

SMILES	CC50 [µM]
Nc1nccc2c1ncn2[C@@H]1C[C@H](CO)[C@@H](O)[C@H]1O [c^3 -Ari, 3-deazaaristeromycin]	> 250
Nc1ncnc2c1ncn2[C@@H]1C=C(CO)[C@@H](O)[C@H]1O [NPA, neplanocin A]	> 1
Nc1nccc2c1ncn2[C@@H]1C=C(CO)[C@@H](O)[C@H]1O [3-Deazaneplanocin A, 3-deazaneplanocin A]	> 100
